Like-named read-outs stand apart in the source and are kept apart here.
Columns and labels:
Test in all cases: cells
HepG2 cells [1] = conditions: Homo sapiens, HepG2, 48 h, read-out: IC-50 RE-CES
NIH3T3 cells = conditions: Mus musculus, NIH3T3, 48 h, read-out: IC-50 RE-CES
HUEVEC cells [2] = conditions: 48 h, read-out: IC-50 MTT Assay
HUEVEC cells [3] = conditions: 48 h, read-out: IC-50 RE-CES
HT1080 cells = conditions: Homo sapiens, HT-1080, 48 h, read-out: IC-50 RE-CES
HepG2 cells [4] = conditions: Homo sapiens, HepG2, 48 h, read-out: IC-50 MTT Assay

Compound: CC/C(=C(\c1ccccc1)c1ccc(OCCN(C)C)cc1)c1ccccc1 [Tamoxifen]
- IC50 (HepG2 cells [1]): 15.2 µM
- IC50 (NIH3T3 cells): 16 µM
- IC50 (HUEVEC cells [2]): 8 µM
- IC50 (HUEVEC cells [3]): 7.5 µM
- IC50 (HT1080 cells): 22.4 µM
- IC50 (HepG2 cells [4]): 16.2 µM

Reference: patent US12066428B2, “Cell-substrate impedance monitoring of cancer cells” (Agilent Technologies, Inc., priority 2016, dated 2024)
